{"source": "the supplement of paper PMC8728848", "test_in_all_cases": "glycan array binding signal (z-score within array); higher = stronger binding", "conditions_in_all_cases": "glycan notation: IUPAC condensed, linker removed", "key": {"[1]": {"target": "Gal(b1-4)GlcNAc(b1-3)Gal(b1-4)GlcNAc(b1-3)[Gal(b1-4)GlcNAc(b1-3)Gal(b1-4)GlcNAc(b1-6)]GalNAc", "outline": "(§1)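 The binding signal is a Z-score computed within each array. Data were drawn from 3228 arrays in the Consortium for Functional Glycomics database, restricted to those with a known protein sequence. Scores were averaged over arrays of the same protein sequence at different concentrations or buffers, and over linkers, and negative values can be taken as non-binding.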"}, "[2]": {"target": "Gal(b1-4)GlcNAc(b1-3)Gal(b1-4)GlcNAc(b1-6)[Gal(b1-3)]GalNAc", "outline": "as §1"}, "[3]": {"target": "Gal(b1-4)GlcNAc(b1-3)Gal(b1-4)[Fuc(a1-3)]GlcNAc(b1-3)Gal(b1-4)[Fuc(a1-3)]GlcNAc", "outline": "as §1"}, "[4]": {"target": "Gal(b1-4)GlcNAc(b1-3)GalNAc", "outline": "as §1"}, "[5]": {"target": "Gal(b1-4)GlcNAc(b1-3)[Fuc(a1-3)GlcNAc(b1-6)]Gal(b1-4)Glc", "outline": "as §1"}, "[6]": {"target": "Gal(b1-4)GlcNAc(b1-3)[Gal(b1-4)GlcNAc(b1-6)]Gal(b1-4)GlcNAc", "outline": "as §1"}, "[7]": {"target": "Gal(b1-4)GlcNAc(b1-3)[GlcNAc(b1-6)]Gal(b1-4)GlcNAc", "outline": "as §1"}, "[8]": {"target": "Gal(b1-4)GlcNAc(b1-6)Gal(b1-4)GlcNAc", "outline": "as §1"}, "[9]": {"target": "Gal(b1-4)GlcNAc(b1-6)GalNAc", "outline": "as §1"}, "[10]": {"target": "Gal(b1-4)GlcNAc(b1-6)[Gal(b1-3)]GalNAc", "outline": "as §1"}, "[11]": {"target": "Gal(b1-4)GlcNAc(b1-6)[Gal(b1-4)GlcNAc(b1-3)]GalNAc", "outline": "as §1"}, "Gal(b1-4)GlcNAc6P": {"target": "Gal(b1-4)GlcNAc6P", "outline": "as §1"}, "Gal(b1-6)Gal": {"target": "Gal(b1-6)Gal", "outline": "as §1"}, "Gal3S(b1-3)GalNAc": {"target": "Gal3S(b1-3)GalNAc", "outline": "as §1"}, "Gal3S(b1-3)GlcNAc": {"target": "Gal3S(b1-3)GlcNAc", "outline": "as §1"}, "[12]": {"target": "Gal3S(b1-3)[Fuc(a1-4)]GlcNAc", "outline": "as §1"}, "Gal3S(b1-4)Glc": {"target": "Gal3S(b1-4)Glc", "outline": "as §1"}, "Gal3S(b1-4)Glc6S": {"target": "Gal3S(b1-4)Glc6S", "outline": "as §1"}, "Gal3S(b1-4)GlcNAc": {"target": "Gal3S(b1-4)GlcNAc", "outline": "as §1"}, "[13]": {"target": "Gal3S(b1-4)[Fuc(a1-3)]Glc6S", "outline": "as §1"}, "[14]": {"target": "Gal3S(b1-4)[Fuc(a1-3)]GlcNAc", "outline": "as §1"}, "[15]": {"target": "Gal3S(b1-4)[Fuc(a1-3)]GlcNAc6S", "outline": "as §1"}, "Gal3S4S(b1-4)GlcNAc": {"target": "Gal3S4S(b1-4)GlcNAc", "outline": "as §1"}, "Gal3S6S(b1-4)GlcNAc": {"target": "Gal3S6S(b1-4)GlcNAc", "outline": "as §1"}, "Gal3S6S(b1-4)GlcNAc6S": {"target": "Gal3S6S(b1-4)GlcNAc6S", "outline": "as §1"}, "Gal4S(b1-4)GlcNAc": {"target": "Gal4S(b1-4)GlcNAc", "outline": "as §1"}, "Gal4S6S(b1-4)GlcNAc": {"target": "Gal4S6S(b1-4)GlcNAc", "outline": "as §1"}, "Gal6P(b1-4)GlcNAc": {"target": "Gal6P(b1-4)GlcNAc", "outline": "as §1"}, "Gal6S(b1-3)GlcNAc": {"target": "Gal6S(b1-3)GlcNAc", "outline": "as §1"}, "Gal6S(b1-3)GlcNAc6S": {"target": "Gal6S(b1-3)GlcNAc6S", "outline": "as §1"}, "Gal6S(b1-4)Glc": {"target": "Gal6S(b1-4)Glc", "outline": "as §1"}, "Gal6S(b1-4)Glc6S": {"target": "Gal6S(b1-4)Glc6S", "outline": "as §1"}, "Gal6S(b1-4)GlcNAc": {"target": "Gal6S(b1-4)GlcNAc", "outline": "as §1"}, "Gal6S(b1-4)GlcNAc6S": {"target": "Gal6S(b1-4)GlcNAc6S", "outline": "as §1"}, "GalNAc(a1-3)Gal": {"target": "GalNAc(a1-3)Gal", "outline": "as §1"}, "GalNAc(a1-3)GalNAc": {"target": "GalNAc(a1-3)GalNAc", "outline": "as §1"}, "[16]": {"target": "GalNAc(a1-3)GalNAc(b1-3)Gal(a1-4)Gal(b1-4)Glc", "outline": "as §1"}}, "note": "This is one part of the list.", "data": [{"binder": "Epa21 (Candida glabrata) (protein) MGSSHHHHHHSSGLVPRGSHMASTPNIESHPQGCSPVDTSGIKPGLKMDLYRFPITPPGTGCWSWDWLTVTPDFPRSGYWKWPKIAEVDGVVGPLHLDSGHPTCDPLTSVLPHGFNYLQSITTTNFTMVLHGYFVPKQSGKYTFEFKADDALLLNLGAGNAFSCCDYNNSQYNQGEYLAYAIWSKNNQTATLYLEKGIYYPIRVFYHNRCCGAYMDVVYYFNDSPIPNRDFSGLLFSIPDSDSCDANI", "values": [{"measurement": "glycan array binding signal (z-score)", "setting": "[1]", "value": 1.89}, {"measurement": "glycan array binding signal (z-score)", "setting": "[2]", "value": 2.73}, {"measurement": "glycan array binding signal (z-score)", "setting": "[3]", "value": -0.493}, {"measurement": "glycan array binding signal (z-score)", "setting": "[4]", "value": -0.525}, {"measurement": "glycan array binding signal (z-score)", "setting": "[5]", "value": -0.542}, {"measurement": "glycan array binding signal (z-score)", "setting": "[6]", "value": -0.161}, {"measurement": "glycan array binding signal (z-score)", "setting": "[7]", "value": 1.79}, {"measurement": "glycan array binding signal (z-score)", "setting": "[8]", "value": 0.03}, {"measurement": "glycan array binding signal (z-score)", "setting": "[9]", "value": -0.047}, {"measurement": "glycan array binding signal (z-score)", "setting": "[10]", "value": 0.616}, {"measurement": "glycan array binding signal (z-score)", "setting": "[11]", "value": -0.185}, {"measurement": "glycan array binding signal (z-score)", "setting": "Gal(b1-4)GlcNAc6P", "value": 0.364}, {"measurement": "glycan array binding signal (z-score)", "setting": "Gal(b1-6)Gal", "value": -0.1}, {"measurement": "glycan array binding signal (z-score)", "setting": "Gal3S(b1-3)GalNAc", "value": -0.468}, {"measurement": "glycan array binding signal (z-score)", "setting": "Gal3S(b1-3)GlcNAc", "value": -0.397}, {"measurement": "glycan array binding signal (z-score)", "setting": "[12]", "value": 1.21}, {"measurement": "glycan array binding signal (z-score)", "setting": "Gal3S(b1-4)Glc", "value": -0.231}, {"measurement": "glycan array binding signal (z-score)", "setting": "Gal3S(b1-4)Glc6S", "value": 0.033}, {"measurement": "glycan array binding signal (z-score)", "setting": "Gal3S(b1-4)GlcNAc", "value": 0.019}, {"measurement": "glycan array binding signal (z-score)", "setting": "[13]", "value": 0.754}, {"measurement": "glycan array binding signal (z-score)", "setting": "[14]", "value": -0.198}, {"measurement": "glycan array binding signal (z-score)", "setting": "[15]", "value": 1.32}, {"measurement": "glycan array binding signal (z-score)", "setting": "Gal3S4S(b1-4)GlcNAc", "value": -0.174}, {"measurement": "glycan array binding signal (z-score)", "setting": "Gal3S6S(b1-4)GlcNAc", "value": 0.658}, {"measurement": "glycan array binding signal (z-score)", "setting": "Gal3S6S(b1-4)GlcNAc6S", "value": 2.16}, {"measurement": "glycan array binding signal (z-score)", "setting": "Gal4S(b1-4)GlcNAc", "value": -0.79}, {"measurement": "glycan array binding signal (z-score)", "setting": "Gal4S6S(b1-4)GlcNAc", "value": -0.52}, {"measurement": "glycan array binding signal (z-score)", "setting": "Gal6P(b1-4)GlcNAc", "value": -0.473}, {"measurement": "glycan array binding signal (z-score)", "setting": "Gal6S(b1-3)GlcNAc", "value": 0.687}, {"measurement": "glycan array binding signal (z-score)", "setting": "Gal6S(b1-3)GlcNAc6S", "value": 1.07}, {"measurement": "glycan array binding signal (z-score)", "setting": "Gal6S(b1-4)Glc", "value": 0.513}, {"measurement": "glycan array binding signal (z-score)", "setting": "Gal6S(b1-4)Glc6S", "value": 2.89}, {"measurement": "glycan array binding signal (z-score)", "setting": "Gal6S(b1-4)GlcNAc", "value": 0.193}, {"measurement": "glycan array binding signal (z-score)", "setting": "Gal6S(b1-4)GlcNAc6S", "value": 3.19}, {"measurement": "glycan array binding signal (z-score)", "setting": "GalNAc(a1-3)Gal", "value": -0.735}, {"measurement": "glycan array binding signal (z-score)", "setting": "GalNAc(a1-3)GalNAc", "value": -0.222}, {"measurement": "glycan array binding signal (z-score)", "setting": "[16]", "value": -0.632}]}]}
